This is an account of results in PubChem BioAssay AID1347426 (Functional Genomics Laboratory (NCATS/FGL), 2020).

The whole screen tested about 31,000 sequences, of which about 1,400 (4.5%) were called active.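 The calls were made as follows: active = median seed-adjusted z-score above 1 or below -1; inactive = the rest.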 Some of the results follow.

This assay is described as follows: Novel Modifiers of Survival Motor Neuron (SMN) Protein: Gene Identification via Genome-wide siRNA Screen.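 Also: luminescence tracks full-length SMN protein made from the SMN2 reporter.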 The settings on record: HEK293T SMN2-luciferase reporter, siRNA knockdown, 72 h; actives lie on both sides. Summed up:
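Genome-wide siRNA screen (10418 genes, 3 siRNAs each, 1 pmol per well) by reverse transfection in HEK293T cells stably carrying an SMN2-luciferase reporter; luminescence after 72 hours, normalized to negative-control siRNA, log10-transformed, MAD-scored.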
Take GAAGCUAAUUUACCUUGUATT against UBE2F: the median seed-adjusted z-score was inactive: 0.
Turning to CAUCGAAGCUAUUUCGAAATT against EFHA2, the median seed-adjusted z-score is inactive: 0.166.
With CCAAAUUCAUUGCCCGCUATT against XAB2 the figure was inactive: 0.0628; with CGCAAGUUGGUGAUCCUAATT against PPM2C, inactive: 0.518.
In the case of GGAUGUUAGGAUUCGAAAUTT against LIMCH1, the median seed-adjusted z-score was inactive: 0.125.
GCCGGCCUGUGAAAUAUGATT against MAP3K3: the median seed-adjusted z-score is inactive: -0.182.
With AGAUUUGUUUUGGACUGUATT against PAFAH1B2, the median seed-adjusted z-score was inactive: 0.0991.
Consider GCUACGGCGUGGACAAGAATT against RELB, for which the median seed-adjusted z-score was active: 1.16.
In the case of GCACACCAUUUGCUUCCAATT against GPR182, the median seed-adjusted z-score was inactive: -0.136.
Take CUGCGAUGAUUGACACUGATT against MAP3K7IP1: the median seed-adjusted z-score is inactive: 0.
Take CUCUCUUCGUAGAUCAAGATT against SFRS7: the median seed-adjusted z-score is inactive: 0.44.
With CAGUAUUGAGGACACCUAUTT against SLC4A2, the median seed-adjusted z-score was inactive: -0.539.
On to UGAUGGCUCUAAAAGAUACTT against ZNF251, for which the median seed-adjusted z-score was inactive: -0.851.
As for CGGUUGGAGUUGGAUGACATT against TRIB3, the median seed-adjusted z-score is inactive: 0.00635.
GGCUGAAUGUAUACAUGCATT against CCNE1: the median seed-adjusted z-score is inactive: -0.693.
With GCAGGUCAGCAUCACCUAUTT against PRSS8 the figure was inactive: -0.275; with UCAUCUACCUGAUGCGUAUTT against TAF6, active: -1.36; with CGAUGAUCUGGACAUCUUUTT against SMAP1, inactive: -0.201.
In the case of CUUCAGGACAGAAAAGUCATT against TXNRD2, the median seed-adjusted z-score was inactive: 0.459.
On to AGCCGACACUGGUUCUUCATT against PFAS, for which the median seed-adjusted z-score was inactive: 0.0344.
Regarding UCAAGGGAGUGAUUCAGUATT against GALK1, the median seed-adjusted z-score is inactive: 0.315.
The same measure for GCCCGAACCUGUAACUUGATT against DRG1: inactive: 0.336.
CCUUAAAGGAGCAAUCAAATT against CDK7: the median seed-adjusted z-score was inactive: -0.524.
For the sequence CCUGAGUUGAUACAAGUGATT against SLC1A5, the median seed-adjusted z-score is inactive: -0.104.
With GAGCCUUAGGAAUACCCGATT against NCOA2, the median seed-adjusted z-score is inactive: 0.149.
With GGCAUGACUUUGACAGACUTT against KCNJ12 the figure was inactive: -0.641.
Take GAACUUCAGAGGACGAGGATT against HNRNPU: the median seed-adjusted z-score was inactive: 0.431.
The same measure for CAGCAGCAGUAUGCCUAUATT against OVOL2: inactive: 0.654; for GGAUUUUCUAGUUACCUGUTT against RG9MTD3: inactive: -0.174.
In the case of GCACGUACACCUUCUUAGATT against NDUFV3, the median seed-adjusted z-score is inactive: -0.086.
